Article PMC5859251
No constants are given. Whether binding was seen depends on the method and setting. Binding seen in cells or lysates may run through a third protein. Some results given as binding are weak or reduced against the parent protein; the word gives no strength. Where a sequence is shown, tags or fusion partners need not be part of it.

T1: Myc-Flag-tagged TRIM29, full length (UniProt Q8R2Q0)
T1 sequence: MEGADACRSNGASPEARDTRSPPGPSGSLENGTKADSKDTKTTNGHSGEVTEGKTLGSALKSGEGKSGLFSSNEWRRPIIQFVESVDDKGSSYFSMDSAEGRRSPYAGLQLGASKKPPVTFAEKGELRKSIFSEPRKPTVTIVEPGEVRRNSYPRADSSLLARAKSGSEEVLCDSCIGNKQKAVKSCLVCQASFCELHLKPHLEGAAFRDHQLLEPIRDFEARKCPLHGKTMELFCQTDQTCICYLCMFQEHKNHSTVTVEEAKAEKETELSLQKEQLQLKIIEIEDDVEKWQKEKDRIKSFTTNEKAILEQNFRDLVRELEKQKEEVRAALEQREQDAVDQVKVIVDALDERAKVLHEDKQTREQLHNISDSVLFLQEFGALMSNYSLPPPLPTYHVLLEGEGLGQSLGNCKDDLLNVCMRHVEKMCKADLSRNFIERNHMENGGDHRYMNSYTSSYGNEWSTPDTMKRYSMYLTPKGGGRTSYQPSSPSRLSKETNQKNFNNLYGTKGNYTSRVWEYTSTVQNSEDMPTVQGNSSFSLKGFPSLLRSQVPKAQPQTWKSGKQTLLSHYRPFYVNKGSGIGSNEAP

B1: STING 211-C (domain or fragment, UniProt Q3TBT3 211-378)
chain: LSVVDPNIRFRDMLPQQNIDRAGIKNRVYSNSVYEILENGQPAGVCILEYATPLQTLFAMSQDAKAGFSREDRLEQAKLFCRTLEEILEDVPESRNNCRLIVYQEPTDGNSFSLSQEVLRHIRQEEKEEVTMNAPMTSVAPPPSVLSQEPRLLISGMDQPLPLRTDLI
B2: STING 161-C (domain or fragment, UniProt Q3TBT3 161-378)
chain: SYYIGYLRLILPGLQARIRMFNQLHNNMLSGAGSRRLYILFPLDCGVPDNLSVVDPNIRFRDMLPQQNIDRAGIKNRVYSNSVYEILENGQPAGVCILEYATPLQTLFAMSQDAKAGFSREDRLEQAKLFCRTLEEILEDVPESRNNCRLIVYQEPTDGNSFSLSQEVLRHIRQEEKEEVTMNAPMTSVAPPPSVLSQEPRLLISGMDQPLPLRTDLI
B3: STING 1-160 (domain or fragment, UniProt Q3TBT3 1-160)
chain: MPYSNLHPAIPRPRGHRSKYVALIFLVASLMILWVAKDPPNHTLKYLALHLASHELGLLLKNLCCLAEELCHVQSRYQGSYWKAVRACLGCPIHCMAMILLSSYFYFLQNTADIYLSWMFGLLVLYKSLSMLLGLQSLTPAEVSAVCEEKKLNVAHGLAW
B4: STING 241-C (domain or fragment, UniProt Q3TBT3 241-378)
chain: NSVYEILENGQPAGVCILEYATPLQTLFAMSQDAKAGFSREDRLEQAKLFCRTLEEILEDVPESRNNCRLIVYQEPTDGNSFSLSQEVLRHIRQEEKEEVTMNAPMTSVAPPPSVLSQEPRLLISGMDQPLPLRTDLI

Biological target: T1, Myc-Flag-tagged TRIM29, full length
Test: co-IP; TRIM29 and STING (full length or truncated) co-expressed in HEK 293T cells; IP and IB with indicated antibodies

Row | Binder | binding
1 | B1 | binds
2 | B2 | binds
3 | B3 | no binding
4 | B4 | no binding
